Measured values: US7803572B2, “Protease detection assay” (Atlas Genetics, Ltd., priority 2003, dated 2010)

How the values were obtained:
elastase = assay: Digestion of Fc-BSA with elastase, differential pulse voltammetry; type: biochemical
Method: (§1) Protease assays were performed as follows unless stated otherwise. […] Samples were incubated at 37° C. for 1 hour.
A digestion of Fc-BSA with elastase was carried out as described above. […] The positive reaction has a peak position of 430 mV and a peak height of 2.57×10^−7 A; the no elastase control reaction has a peak position of 432 mV and a peak height of 2.55×10^−8 A.

carboxypeptidase = assay: Digestion of Fc-BSA with carboxypeptidase, differential pulse voltammetry; type: biochemical
Method: as §1
A digestion of Fc-BSA with carboxypeptidase was carried out as described above. […] The positive reaction has a peak position of 435 mV and a peak height of 1.31×10^−7 A; the no elastase control reaction has a peak position of 427 mV and a peak height of 6.86×10^−8 A.

[1] = Electrode potential by differential pulse voltammetry under the conditions of table 1; type: physicochemical; conditions: comparison of FIGS. 12(c) and 3(c)

Fc-BSA: Bovine serum albumin labelled with ferrocene methanoyl groups via N-hydroxysuccinimide ester; estimated 10 to 20 ferrocenes per BSA
peak position (elastase; no elastase control reaction): 432 mV
peak position (elastase; positive reaction, tris HCl pH 8.5, 37° C. for 1 hour): 430 mV
peak position (carboxypeptidase; no elastase control reaction (so in the source)): 427 mV
peak position (carboxypeptidase; positive reaction, 37° C. for 1 hour): 435 mV
peak in voltammograms of digestion [1]: around 400 mV

FcU-BSA: Bovine serum albumin labelled with 4-(3′-ferrocenylureido)-1-benzoyl groups
peak in voltammograms of digestion [1]: around 100 mV
